Source: the supplement of paper PMC8728848
The other results are listed elsewhere or left out.

Experiments:
Experiment in all cases: glycan array binding signal (z-score within array); higher = stronger binding
Conditions in all cases: glycan notation: IUPAC condensed, linker removed
[1] = target: Neu5Ac(a2-3)Gal(b1-4)GlcNAc(b1-3)Gal(b1-4)GlcNAc(b1-2)Man(a1-3)[Neu5Ac(a2-3)Gal(b1-4)GlcNAc(b1-3)Gal(b1-4)GlcNAc(b1-2)Man(a1-6)]Man(b1-4)GlcNAc(b1-4)GlcNAc
In short: (§1)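 Glycan array data were curated from 3228 arrays in the Consortium for Functional Glycomics database and kept only where the protein sequence was available. Glycan names were converted to IUPAC-condensed notation, and columns mapping to the same glycan were averaged. The binding signal is a within-array Z-score, averaged across arrays of the same protein sequence at different concentrations or buffers and across linkers. Negative Z-scores can be read as non-binding.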

[2] = target: Neu5Ac(a2-3)Gal(b1-4)GlcNAc(b1-3)Gal(b1-4)GlcNAc(b1-3)Gal(b1-4)GlcNAc
In short: as §1

[3] = target: Neu5Ac(a2-3)Gal(b1-4)GlcNAc(b1-3)Gal(b1-4)GlcNAc(b1-3)Gal(b1-4)GlcNAc(b1-2)Man(a1-3)[Neu5Ac(a2-3)Gal(b1-4)GlcNAc(b1-3)Gal(b1-4)GlcNAc(b1-3)Gal(b1-4)GlcNAc(b1-2)Man(a1-6)]GalNAc
In short: as §1

[4] = target: Neu5Ac(a2-3)Gal(b1-4)GlcNAc(b1-3)Gal(b1-4)GlcNAc(b1-3)GalNAc
In short: as §1

[5] = target: Neu5Ac(a2-3)Gal(b1-4)GlcNAc(b1-3)Gal(b1-4)GlcNAc(b1-3)[Neu5Ac(a2-3)Gal(b1-4)GlcNAc(b1-3)Gal(b1-4)GlcNAc(b1-6)]GalNAc
In short: as §1

[6] = target: Neu5Ac(a2-3)Gal(b1-4)GlcNAc(b1-3)Gal(b1-4)GlcNAc(b1-6)[Gal(b1-3)]GalNAc
In short: as §1

[7] = target: Neu5Ac(a2-3)Gal(b1-4)GlcNAc(b1-3)Gal(b1-4)[Fuc(a1-3)]GlcNAc
In short: as §1

[8] = target: Neu5Ac(a2-3)Gal(b1-4)GlcNAc(b1-3)GalNAc
In short: as §1

[9] = target: Neu5Ac(a2-3)Gal(b1-4)GlcNAc(b1-3)[Neu5Ac(a2-3)Gal(b1-4)GlcNAc(b1-6)]GalNAc
In short: as §1

[10] = target: Neu5Ac(a2-3)Gal(b1-4)GlcNAc(b1-6)GalNAc
In short: as §1

[11] = target: Neu5Ac(a2-3)Gal(b1-4)GlcNAc(b1-6)[Gal(b1-3)]GalNAc
In short: as §1

[12] = target: Neu5Ac(a2-3)Gal(b1-4)GlcNAc(b1-6)[Neu5Ac(a2-3)Gal(b1-3)]GalNAc
In short: as §1

[13] = target: Neu5Ac(a2-3)Gal(b1-4)GlcNAc6S
In short: as §1

[14] = target: Neu5Ac(a2-3)Gal(b1-4)[Fuc(a1-3)]GlcNAc
In short: as §1

[15] = target: Neu5Ac(a2-3)Gal(b1-4)[Fuc(a1-3)]GlcNAc(b1-2)Man
In short: as §1

[16] = target: Neu5Ac(a2-3)Gal(b1-4)[Fuc(a1-3)]GlcNAc(b1-3)Gal
In short: as §1

[17] = target: Neu5Ac(a2-3)Gal(b1-4)[Fuc(a1-3)]GlcNAc(b1-3)Gal(b1-4)GlcNAc
In short: as §1

[18] = target: Neu5Ac(a2-3)Gal(b1-4)[Fuc(a1-3)]GlcNAc(b1-3)Gal(b1-4)[Fuc(a1-3)]GlcNAc(b1-3)Gal(b1-4)[Fuc(a1-3)]GlcNAc
In short: as §1

[19] = target: Neu5Ac(a2-3)Gal(b1-4)[Fuc(a1-3)]GlcNAc(b1-3)GalNAc
In short: as §1

[20] = target: Neu5Ac(a2-3)Gal(b1-4)[Fuc(a1-3)]GlcNAc(b1-6)[Gal(b1-3)]GalNAc
In short: as §1

[21] = target: Neu5Ac(a2-3)Gal(b1-4)[Fuc(a1-3)]GlcNAc(b1-6)[Neu5Ac(a2-3)Gal(b1-3)]GalNAc
In short: as §1

[22] = target: Neu5Ac(a2-3)Gal(b1-4)[Fuc(a1-3)]GlcNAc6S
In short: as §1

[23] = target: Neu5Ac(a2-3)Gal6S(b1-4)GlcNAc
In short: as §1

[24] = target: Neu5Ac(a2-3)Gal6S(b1-4)[Fuc(a1-3)]GlcNAc
In short: as §1

Neu5Ac(a2-3)GalNAc = target: Neu5Ac(a2-3)GalNAc
In short: as §1

[25] = target: Neu5Ac(a2-3)GalNAc(b1-4)GlcNAc
In short: as §1

[26] = target: Neu5Ac(a2-3)[GalNAc(b1-4)]Gal(b1-4)Glc
In short: as §1

[27] = target: Neu5Ac(a2-3)[GalNAc(b1-4)]Gal(b1-4)GlcNAc
In short: as §1

[28] = target: Neu5Ac(a2-3)[GalNAc(b1-4)]Gal(b1-4)GlcNAc(b1-3)GalNAc
In short: as §1

[29] = target: Neu5Ac(a2-3)[Neu5Ac(a2-6)]GalNAc
In short: as §1

Neu5Ac(a2-6)Gal = target: Neu5Ac(a2-6)Gal
In short: as §1

[30] = target: Neu5Ac(a2-6)Gal(b1-3)GlcNAc(b1-3)[Gal(b1-4)GlcNAc(b1-6)]Gal(b1-4)Glc
In short: as §1

Neu5Ac(a2-6)Gal(b1-4)Glc = target: Neu5Ac(a2-6)Gal(b1-4)Glc
In short: as §1

[31] = target: Neu5Ac(a2-6)Gal(b1-4)GlcNAc
In short: as §1

[32] = target: Neu5Ac(a2-6)Gal(b1-4)GlcNAc(b1-2)Man
In short: as §1

[33] = target: Neu5Ac(a2-6)Gal(b1-4)GlcNAc(b1-2)Man(a1-3)Man(b1-4)GlcNAc(b1-4)GlcNAc
In short: as §1

[34] = target: Neu5Ac(a2-6)Gal(b1-4)GlcNAc(b1-2)Man(a1-3)[Gal(b1-4)GlcNAc(b1-2)Man(a1-6)]Man(b1-4)GlcNAc(b1-4)GlcNAc
In short: as §1

[35] = target: Neu5Ac(a2-6)Gal(b1-4)GlcNAc(b1-2)Man(a1-3)[GlcNAc(b1-2)Man(a1-6)]Man(b1-4)GlcNAc(b1-4)GlcNAc
In short: as §1

B1: Epa8 (Candida glabrata) (protein)
chain: MGSSHHHHHHSSGLVPRGSHMASSRALSDYPLGCSPLLGTKLTPGLSMELYEYPLDNHGIGPHCWDPAYLNPEYPRTGFESHKLIGTAQNVMSLNFEHRTQDCHVEFSNLPASFNFPDQITLTNFTMLLYGYFKPKESGRYRFHMEADDLLLMNLGAGNAFDCCAHEATRNNLGDYIAYDIWAGTRKDVEVFLEKEVFYPLRLFFNNRDGRAALDFSYYLNGATEPGTDIPELLFSLPDGESCPAYI
[1]
  glycan array binding signal (z-score): 0.013
[2]
  glycan array binding signal (z-score): -0.73
[3]
  glycan array binding signal (z-score): 1.14
[4]
  glycan array binding signal (z-score): -0.164
[5]
  glycan array binding signal (z-score): 0.849
[6]
  glycan array binding signal (z-score): 0.126
[7]
  glycan array binding signal (z-score): -0.418
[8]
  glycan array binding signal (z-score): -0.136
[9]
  glycan array binding signal (z-score): 1.06
[10]
  glycan array binding signal (z-score): -0.629
[11]
  glycan array binding signal (z-score): 0.137
[12]
  glycan array binding signal (z-score): -0.788
[13]
  glycan array binding signal (z-score): -0.268
[14]
  glycan array binding signal (z-score): -0.049
[15]
  glycan array binding signal (z-score): 0.17
[16]
  glycan array binding signal (z-score): 1.15
[17]
  glycan array binding signal (z-score): 0.387
[18]
  glycan array binding signal (z-score): -1.14
[19]
  glycan array binding signal (z-score): 1.26
[20]
  glycan array binding signal (z-score): 1.64
[21]
  glycan array binding signal (z-score): 0.504
[22]
  glycan array binding signal (z-score): -0.455
[23]
  glycan array binding signal (z-score): -0.355
[24]
  glycan array binding signal (z-score): -0.533
Neu5Ac(a2-3)GalNAc
  glycan array binding signal (z-score): -0.725
[25]
  glycan array binding signal (z-score): 0.308
[26]
  glycan array binding signal (z-score): -0.619
[27]
  glycan array binding signal (z-score): -0.187
[28]
  glycan array binding signal (z-score): 0.105
[29]
  glycan array binding signal (z-score): -0.546
Neu5Ac(a2-6)Gal
  glycan array binding signal (z-score): -0.212
[30]
  glycan array binding signal (z-score): -0.986
Neu5Ac(a2-6)Gal(b1-4)Glc
  glycan array binding signal (z-score): -0.748
[31]
  glycan array binding signal (z-score): -0.933
[32]
  glycan array binding signal (z-score): 1.14
[33]
  glycan array binding signal (z-score): -0.059
[34]
  glycan array binding signal (z-score): -0.408
[35]
  glycan array binding signal (z-score): 0.006
